Consider one molecule from paper PMC7309457.

No constants are given. Whether binding was seen depends on the method and setting. Binding seen in cells or lysates may run through a third protein. A result given as binding can be weak or reduced; the word gives no strength.

The target in this assay is Cyclin-dependent kinase 11 (human (endogenous in HeLa)). Kind of assay: co-IP; anti-CDK11 (normal rabbit IgG as control) on protein A/G magnetic beads, 2 mg HeLa lysate protein, 1 h at 4 °C; lysis buffer 50 mM Tris-HCl, 150 mM NaCl, 0.5% Triton X-100, 2 mM EDTA pH 8.0; four washes; immunoblot.

B1: SIRT2 (protein, UniProt Q8IXJ6 1-389)
chain: MAEPDPSHPLETQAGKVQEAQDSDSDSEGGAAGGEADMDFLRNLFSQTLSLGSQKERLLDELTLEGVARYMQSERCRRVICLVGAGISTSAGIPDFRSPSTGLYDNLEKYHLPYPEAIFEISYFKKHPEPFFALAKELYPGQFKPTICHYFMRLLKDKGLLLRCYTQNIDTLERIAGLEQEDLVEAHGTFYTSHCVSASCRHEYPLSWMKEKIFSEVTPKCEDCQSLVKPDIVFFGESLPARFFSCMQSDFLKVDLLLVMGTSLQVQPFASLISKAPLSTPRLLINKEKAGQSDPFLGMIMGLGGGMDFDSKKAYRDVAWLGECDQGCLALAELLGWKKELEDLVRREHASIDAQSGAGVPNPSTSASPKKSPPPAKDEARTTEREKPQ
In the case of B1, the binding result is listed as “binds”.
